In all, about 400,000 compounds went through this assay and about 13,000 (3.2%) were called active. The inconclusive results got no clear call from the source; some entries with a clear call stand among them for comparison. Calls follow the shape of the dose curve; as a rule, active = well fitted cell-killing curve with a large enough effect; inconclusive = small, poorly fitted or top-dose-only effect, or effect the other way; inactive = flat fitted curve, though single readings scatter. Potencies of inconclusive entries are doubtful fits and often do not repeat.
Experiment: qHTS assay for MDR1-selective chemotherapeutics: Primary screen using the drug-selected MDR subline cells KB-V1; also: nearly all actives have a fitted effect of over 60% in size
Settings: KB-V1 MDR cells viability, CellTiter-Glo, 72 h; series mostly up to 46.1 µM
Outline: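 KB-V1, DMEM (no phenol red) + 10% FBS; cpd pin-transferred, titration series; 72 h, 37 degrees C; CellTiter-Glo, luminescence. Data normalized, curve-fit.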
Potency is read from the fitted curve at half-maximal effect.

| Structure (SMILES) | Potency |
| --- | --- |
| N#Cc1c(-c2cccc(Br)c2)cc(-c2ccco2)[nH]c1=O | inactive |
| COC(=O)C[C@H]1C[C@H]2c3cc(NC(=O)Nc4ccc(F)cc4)ccc3O[C@H]2[C@@H](CO)O1 | inactive |
| Cc1nc(Nc2ccc(F)cc2)[nH]c(=O)c1CCC(C)C | inconclusive: 29.1 µM [cytotoxic, single point] |
| CN(C)S(=O)(=O)c1cccc(COc2ccccc2C(=O)Nc2ccccc2)c1 | inactive |
| CCCCN1CC(COCc2ccccc2)Oc2cccc(OCCN3C(=O)[C@@H]4[C@H](C3=O)C3C=C[C@H]4C3)c2S1(=O)=O (stereo partly drawn) | active: 14.6 µM |
| CCN1CCN(Cc2ccc(NC(=O)c3cc(NC(=O)C(=O)c4c[nH]c5ccccc45)cc(OC)c3)cc2C(F)(F)F)CC1 | inconclusive: 29.1 µM [cytotoxic, single point] |
| CCCn1c(=O)c(C(=O)Nc2cccc(C)n2)c(O)c2ccccc21 | inconclusive: 29.1 µM [cytotoxic, single point] |
| CCNc1nc(Oc2ccc(OCC(=O)OC)nn2)nc(N2CCOCC2)n1 | inconclusive: 16.4 µM [rising, partial curve] |
| CCc1ccccc1NC(=O)c1cc(S(=O)(=O)N(C)C)ccc1N1CCCC1 | inconclusive: 18.4 µM [cytotoxic, single point] |
| COc1ccc(S(=O)(=O)N(C)C[C@H]2Oc3ccc(NS(=O)(=O)c4ccccc4)cc3CC(=O)N([C@H](C)CO)C[C@@H]2C)cc1 | inconclusive: 29.1 µM [rising, single point] |
| O=c1[nH]n(-c2ccccc2Cl)c(=O)c2ccccc12 | inconclusive: 20.6 µM [rising, partial curve, poor fit] |
| COCCCN1C(=O)C(O)=C(C(C)=O)C1c1cccc(F)c1 (stereo not drawn) | inconclusive: 32.6 µM [rising, single point] |
| Cc1cc(/C=C2/SC(=O)N(CC(=O)N3CCCC3)C2=O)c(C)n1C | inconclusive: 16.4 µM [cytotoxic, single point] |
| CCCCCCNC(=O)Nc1nnc(-c2ccncc2)s1 | inactive |
| Cc1c(Cl)cccc1Nc1nc(N)nc(CSc2ncccn2)n1 | active: 18.4 µM |
| Cc1ccc(C)c(S(=O)(=O)N2CCN(C(=O)C3CC3C)CC2)c1 (stereo not drawn) | inconclusive: 18.4 µM [cytotoxic, single point] |
| O=C1CN(C(=O)COc2ccc(Cl)cc2Cl)C(c2ccc(F)cc2)c2cc(F)ccc2N1 (stereo not drawn) | inactive |
| CCCCCCN1CC(C(=O)OCC)C(=O)C1=O (stereo not drawn) | inconclusive: 25.9 µM [cytotoxic, partial curve, poor fit] |

3 structures from above, sorted by molecular weight, largest number first:

| Structure (SMILES) | Potency |
| --- | --- |
| CCNc1nc(Oc2ccc(OCC(=O)OC)nn2)nc(N2CCOCC2)n1 | inconclusive: 16.4 µM [rising, partial curve] |
| CCCn1c(=O)c(C(=O)Nc2cccc(C)n2)c(O)c2ccccc21 | inconclusive: 29.1 µM [cytotoxic, single point] |
| O=c1[nH]n(-c2ccccc2Cl)c(=O)c2ccccc12 | inconclusive: 20.6 µM [rising, partial curve, poor fit] |

— PubChem BioAssay AID1347076 (National Center for Advancing Translational Sciences (NCATS), 2019)
